Test results reported in article PMC3896488.
These are yes or no findings as the source states them, for the method shown. In cells and extracts the contact can be indirect. Some binding calls cover weakened binding; strength is not graded here.

Protein sequences, listed by entry. Tags and fused reporters are not part of them. Lines headed by an entry give the natural chain unless they say otherwise; changes in a name come on top. Chains listed by the source or under a name are the forms on record and can include a tag or linker.
Protein kinase C β2 (rat (endogenous in Wistar rat heart)) (P68403, form named): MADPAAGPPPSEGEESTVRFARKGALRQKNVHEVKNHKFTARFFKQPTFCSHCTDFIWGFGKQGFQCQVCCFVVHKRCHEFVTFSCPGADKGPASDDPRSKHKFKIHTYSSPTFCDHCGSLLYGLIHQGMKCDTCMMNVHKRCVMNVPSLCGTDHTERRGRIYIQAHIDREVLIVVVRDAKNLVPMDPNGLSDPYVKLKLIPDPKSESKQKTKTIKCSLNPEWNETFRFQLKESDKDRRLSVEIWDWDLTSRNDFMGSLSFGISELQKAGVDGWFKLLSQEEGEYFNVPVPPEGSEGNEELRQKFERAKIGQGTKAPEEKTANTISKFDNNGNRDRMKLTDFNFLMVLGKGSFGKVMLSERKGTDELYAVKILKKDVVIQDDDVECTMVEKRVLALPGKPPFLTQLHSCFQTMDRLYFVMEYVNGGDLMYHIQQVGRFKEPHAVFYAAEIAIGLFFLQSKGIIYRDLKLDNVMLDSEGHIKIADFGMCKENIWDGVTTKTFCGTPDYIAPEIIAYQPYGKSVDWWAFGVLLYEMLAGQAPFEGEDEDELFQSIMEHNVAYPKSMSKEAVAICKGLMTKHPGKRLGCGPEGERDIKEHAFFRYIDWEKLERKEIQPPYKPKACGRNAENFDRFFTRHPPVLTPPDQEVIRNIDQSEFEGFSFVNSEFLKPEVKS

Target: Protein kinase C β2 (rat (endogenous in Wistar rat heart)) (UniProt P68403)
Assay: co-IP; 500 µg protein from control and diabetic rat hearts (untreated or perfused with 1 µM H-1152) incubated with anti-PKCβ2 or anti-ROCK2 antibody cross-linked to agarose resin (Pierce); Western blot of the precipitate

B1: phosphoinositide-dependent protein kinase-1 (enzyme, UniProt O55173 1-559)
chain: MARTTSQLYDAVPIQSSVVLCSCPSPSMVRSQTEPSSSPGIPSGVSRQGSTMDGTTAEARPSTNPLQQHPAQLPPQPRKKRPEDFKFGKILGEGSFSTVVLARELATSREYAIKILEKRHIIKENKVPYVTRERDVMSRLDHPFFVKLYFTFQDDEKLYFGLSYAKNGELLKYIRKIGSFDETCTRFYTAEIVSALEYLHGKGIIHRDLKPENILLNEDMHIQITDFGTAKVLSPDSKQARANSFVGTAQYVSPELLTEKSACKSSDLWALGCIIYQLVAGLPPFRAGNEYLIFQKIIKLEYDFPEKFFPKARDLVEKLLVLDATKRLGCEEMEGYGPLKAHPFFESITWENLHQQTPPKLTAYLPAMSEDDEDCYGNYDNLLSQFGCMQVSSSSSSHSLSAVDASLPQRSGSNIEQYIHDLDTNSFELDLQFSEDEKRLLLEKQAGGNPWHQFVENNLILKMGPVDKRKGLFARRRQLLLTEGPHLYYVDPVNKVLKGEIPWSQELRPEAKNFKTFFVHTPNRTYYLMDPSGNAHKWCRKIQEVWRQQYQSSPDAAVQ
binding: binds
